For 1 molecule, binding results are on record in article PMC2515640.

Amino acid sequences for entries named in this document (tags omitted).
UniProt Q14137: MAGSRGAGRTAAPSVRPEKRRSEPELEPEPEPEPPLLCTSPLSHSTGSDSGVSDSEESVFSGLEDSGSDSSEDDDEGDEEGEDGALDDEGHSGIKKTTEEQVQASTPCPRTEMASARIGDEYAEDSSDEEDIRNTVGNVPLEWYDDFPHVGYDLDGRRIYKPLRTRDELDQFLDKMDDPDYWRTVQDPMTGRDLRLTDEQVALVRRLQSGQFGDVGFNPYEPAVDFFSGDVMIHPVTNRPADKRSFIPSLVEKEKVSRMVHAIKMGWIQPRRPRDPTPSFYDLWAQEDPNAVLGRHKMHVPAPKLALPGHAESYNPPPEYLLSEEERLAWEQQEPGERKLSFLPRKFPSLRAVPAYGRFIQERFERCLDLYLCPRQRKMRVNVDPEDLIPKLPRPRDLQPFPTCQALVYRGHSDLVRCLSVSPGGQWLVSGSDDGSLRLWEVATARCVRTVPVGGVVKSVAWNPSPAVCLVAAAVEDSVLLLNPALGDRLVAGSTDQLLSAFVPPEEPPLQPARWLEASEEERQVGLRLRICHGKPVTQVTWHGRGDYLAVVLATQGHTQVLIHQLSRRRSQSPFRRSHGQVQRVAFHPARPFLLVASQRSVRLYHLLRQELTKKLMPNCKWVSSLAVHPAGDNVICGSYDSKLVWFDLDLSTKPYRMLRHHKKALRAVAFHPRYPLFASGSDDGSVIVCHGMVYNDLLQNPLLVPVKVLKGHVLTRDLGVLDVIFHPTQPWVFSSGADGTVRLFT

The target of this experiment is Bop1 (human (endogenous in U2OS)) (UniProt Q14137). The experiment can be described thus: co-IP; U2OS cell lysates immunoprecipitated with anti-WDR12, anti-Pes1 or anti-Bop1 antibodies or normal rat IgG; Western blot for Pes1 and WDR55; 2.5% of input loaded; carried out as described in ref. 35. In general terms: Immunoblotting shows a protein as a band on a membrane.

These are yes or no findings as the source states them, for the method shown. Binding seen in cells or lysates may run through a third protein.

B1: WDR55 (protein, UniProt Q9H6Y2 1-383)
chain: MDRTCEERPAEDGSDEEDPDSMEAPTRIRDTPEDIVLEAPASGLAFHPARDLLAAGDVDGDVFVFSYSCQEGETKELWSSGHHLKACRAVAFSEDGQKLITVSKDKAIHVLDVEQGQLERRVSKAHGAPINSLLLVDENVLATGDDTGGICLWDQRKEGPLMDMRQHEEYIADMALDPAKKLLLTASGDGCLGIFNIKRRRFELLSEPQSGDLTSVTLMKWGKKVACGSSEGTIYLFNWNGFGATSDRFALRAESIDCMVPVTESLLCTGSTDGVIRAVNILPNRVVGSVGQHTGEPVEELALSHCGRFLASSGHDQRLKFWDMAQLRAVVVDDYRRRKKKGGPLRALSSKTWSTDDFFAGLREEGEDSMAQEEKEETGDDSD
For the molecule B1, the binding result is reported as “no binding”.
